Test results taken from publication PMC3587611.
These are yes or no findings as the source states them, for the method shown. In cells and extracts the contact can be indirect. Some entries that bind do so weakly or less than the wild type. Where a sequence is shown, tags or fusion partners need not be part of it.

Molecular target: T1, GST-Dullard recombinant protein (lacking the first 30 amino acids) (UniProt Q3TP92)
T1 sequence: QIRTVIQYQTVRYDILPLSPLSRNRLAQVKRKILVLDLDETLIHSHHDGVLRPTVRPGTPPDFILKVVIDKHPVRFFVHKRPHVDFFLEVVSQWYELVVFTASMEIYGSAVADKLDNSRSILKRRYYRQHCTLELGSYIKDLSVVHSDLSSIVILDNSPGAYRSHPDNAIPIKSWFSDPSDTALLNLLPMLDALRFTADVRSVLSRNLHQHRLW
Experiment: pull-down; GST-Dullard recombinant protein as bait; Myc-tagged Dvls from transfected HEK293 cells, detected by an anti-Myc antibody; two independent experiments

Row | Binder | binding
1 | Myc-tagged Dvl1 (protein, UniProt P51141 1-695) MAETKIIYHMDEEETPYLVKLPVAPERVTLADFKNVLSNRPVHAYKFFFKSMDQDFGVVKEEIFDDNAKLPCFNGRVVSWLVLAEGAHSDAGSQGTDSHTDLPPPLERTGGIGDSRPPSFHPNVASSRDGMDNETGTESMVSHRRERARRRNRDEAARTNGHPRGDRRRDLGLPPDSASTVLSSELESSSFIDSDEEDNTSRLSSSTEQSTSSRLVRKHKCRRRKQRLRQTDRASSFSSITDSTMSLNIITVTLNMERHHFLGISIVGQSNDRGDGGIYIGSIMKGGAVAADGRIEPGDMLLQVNDVNFENMSNDDAVRVLREIVSQTGPISLTVAKCWDPTPRSYFTIPRADPVRPIDPAAWLSHTAALTGALPRYGTSPCSSAITRTSSSSLTSSVPGAPQLEEAPLTVKSDMSAIVRVMQLPDSGLEIRDRMWLKITIANAVIGADVVDWLYTHVEGFKERREARKYASSMLKHGFLRHTVNKITFSEQCYYVFGDLCSNLASLNLNSGSSGASDQDTLAPLPHPSVPWPLGQGYPYQYPGPPPCFPPAYQDPGFSCGSGSAGSQQSEGSKSSGSTRSSHRTPGREERRATGAGGSGSESDHTVPSGSGSTGWWERPVSQLSRGSSPRSQASAVAPGLPPLHPLTKAYAVVGGPPGGPPVRELAAVPPELTGSRQSFQKAMGNPCEFFVDIM | binds
2 | Myc-tagged Dvl2 (protein, UniProt Q60838 1-736) MAGSSAGGGGVGETKVIYHLDEEETPYLVKIPVPAERITLGDFKSVLQRPAGAKYFFKSMDQDFGVVKEEISDDNARLPCFNGRVVSWLVSSDTPQPEVAPPAHESRTELVPPPPPLPPLPPERTSGIGDSRPPSFHPNVSSSHENLEPETETESVVSLRRDRPRRRDSSEHGAGGHRPGGPSRLERHLAGYESSSTLMTSELESTSLGDSDEDDTMSRFSSSTEQSSASRLLKRHRRRRKQRPPRMERTSSFSSVTDSTMSLNIITVTLNMEKYNFLGISIVGQSNERGDGGIYIGSIMKGGAVAADGRIEPGDMLLQVNDMNFENMSNDDAVRVLRDIVHKPGPIVLTVAKCWDPSPQAYFTLPRNEPIQPIDPAAWVSHSAALTGAFPAYPGSSSMSTITSGSSLPDGCEGRGLSVHMDMASVTKAMAAPESGLEVRDRMWLKITIPNAFLGSDVVDWLYHHVEGFPERREARKYASGLLKAGLIRHTVNKITFSEQCYYVFGDLSGGCESYLVNLSLNDNDGSSGASDQDTLAPLPGATPWPLLPTFSYQYPAPHPYSPQPPPYHELSSYTYGGGSASSQHSEGSRSSGSTRSDGGAGRTGRPEERAPESKSGSGSESELSSRGGSLRRGGEPGGTGDGGPPPSRGSTGAPPNLRALPGLHPYGAPSGMALPYNPMMVVMMPPPPPPVSTAVQPPGAPPVRDLGSVPPELTASRQSFHMAMGNPSEFFVDVM | binds
3 | Myc-tagged Dvl3 (protein, UniProt Q61062 1-716) MGETKIIYHLDGQETPYLVKLPLPAERVTLADFKGVLQRPSYKFFFKSMDDDFGVVKEEISDDNAKLPCFNGRVVSWLVSAEGSHPEPAPFCADNPSELPPSMERTGGIGDSRPPSFHPHASGGSQENLDNDTETDSLVSAQRERPRRRDGPEHAARLNGTTKGERRREPGGYDSSSTLMSSELETTSFFDSDEDDSTSRFSSSTEQSSASRLMRRHKRRRRKQKVSRIERSSSFSSITDSTMSLNIITVTLNMEKYNFLGISIVGQSNERGDGGIYIGSIMKGGAVAADGRIEPGDMLLQVNEINFENMSNDDAVRVLREIVHKPGPITLTVAKCWDPSPRGCFTLPRSEPIRPIDPAAWVSHTAAMTGTFPAYGMSPSLSTITSTSSSITSSIPDTERLDDFHLSIHSDMAAIVKAMASPESGLEVRDRMWLKITIPNAFIGSDVVDWLYHNVEGFTDRREARKYASNLLKAGFIRHTVNKITFSEQCYYIFGDLCGNMANLSLHDHDGSSGASDQDTLAPLPHPGAAPWPMAFPYQYPPPPHPYNPHPGFPELGYSYGGGSASSQHSEGSRSSGSNRSGSDRRKEKDPKAGDSKSGGSGSESDHTTRSSLRGPRERAPSERSGPAASEHSHRSHHSLTSSLRSHHTHPSYGPPGVPPLYGPPMLMMTPPPAAMGPPGAPPGRDLASVPPELTASRQSFRMAMGNPSEFFVDVM | binds
